# Library screen at single concentrations

Protein sequences, listed by entry. Tags and fused reporters are not part of them. Residues count along the entry.
UniProt Q4DA54, 1-478: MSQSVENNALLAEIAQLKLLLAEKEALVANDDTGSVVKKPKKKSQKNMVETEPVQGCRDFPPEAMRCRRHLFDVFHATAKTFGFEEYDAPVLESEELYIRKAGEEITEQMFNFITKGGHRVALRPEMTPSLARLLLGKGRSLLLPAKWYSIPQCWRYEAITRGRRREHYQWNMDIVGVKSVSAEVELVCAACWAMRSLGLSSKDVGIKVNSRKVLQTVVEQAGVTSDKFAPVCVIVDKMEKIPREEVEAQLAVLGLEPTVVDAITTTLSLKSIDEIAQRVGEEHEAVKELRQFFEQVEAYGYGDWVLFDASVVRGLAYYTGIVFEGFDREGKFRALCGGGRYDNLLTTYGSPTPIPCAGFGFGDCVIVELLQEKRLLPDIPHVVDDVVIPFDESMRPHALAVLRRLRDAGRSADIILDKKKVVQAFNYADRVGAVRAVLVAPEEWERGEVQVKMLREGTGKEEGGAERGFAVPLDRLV
UniProt P9WPC5, whole entry: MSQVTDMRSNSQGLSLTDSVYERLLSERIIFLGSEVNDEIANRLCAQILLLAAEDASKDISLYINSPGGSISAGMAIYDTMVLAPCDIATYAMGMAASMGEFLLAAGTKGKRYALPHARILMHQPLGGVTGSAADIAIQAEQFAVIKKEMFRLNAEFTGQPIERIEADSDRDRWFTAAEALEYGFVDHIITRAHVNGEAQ
UniProt P9WPC3, whole entry partner: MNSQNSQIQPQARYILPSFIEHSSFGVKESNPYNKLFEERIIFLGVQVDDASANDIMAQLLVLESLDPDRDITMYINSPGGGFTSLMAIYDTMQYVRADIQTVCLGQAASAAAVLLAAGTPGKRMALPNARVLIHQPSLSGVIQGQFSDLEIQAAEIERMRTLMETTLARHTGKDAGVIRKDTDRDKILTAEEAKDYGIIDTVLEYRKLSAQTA

The values are deposited in ChEMBL (CHEMBL3988442, “University of Dundee, Small-Polar-MMV Screening Library” (2021)).

TcHisRS: 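Enzyme assay of histidyl-tRNA synthetase; the read-out is not stated. Target: Histidine-tRNA ligase, Trypanosoma cruzi CL Brener (UniProt Q4DA54). Concentration: 30 µM. Higher reads as stronger inhibition (inferred: compounds with an IC50 in retests scored well above the rest). Size under these conditions: about 69,000 compounds, about 31 of them at 50% or above in at least one test.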
ClpP1P2: 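Protease assay of ClpP1P2, read by the AMC dye that it sets free. Target: ClpP1P2, Mycobacterium tuberculosis (UniProt P9WPC5 and UniProt P9WPC3). Concentration: 50 µM. Direction is inferred from only a few compounds that gave an IC50; most scored high, so higher reads as stronger inhibition. Most other retested compounds had strongly negative values. Of about 69,000 compounds tested this way, about 10 (0.015%) reached 50% or more in at least one test.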

Each number is a percent effect as filed. The controls that fix the scale are not given in the record; negative values are as filed. Compounds were drawn at random from those tested, without regard to their results.

structure | TcHisRS | ClpP1P2
COc1cccc(C(C)N2CCN(S(C)(=O)=O)CC2)c1 (stereo not shown) | 5.732 | 3.728
COCCN(Cc1cnn(C)c1)Cc1ccc(C)o1 | 2.521 | -4.328
CCOc1nnc(CN2CCC(N(C)Cc3noc(C)n3)C2)s1 (stereo not shown) | -0.7576 | 3.749
O=C(NCCc1ccccc1)NCC(O)c1cccs1 (stereo not shown) | 4.848 | -13.81
CC(C)CC(NCc1ccsc1)c1ccccn1 (stereo not shown) | 1.98 | -6.947
CN1CC2(CCN(C(=O)c3ccc(-n4cnnc4)cc3Cl)CC2)OC1=O | -4 | 10.93
O=C1CCOCCN1Cc1ccc(Cl)c(Cl)c1 | 0.9662 | -23.99
O=C(N1CCCC1)N1Cc2nccn2CC(Cn2ncccc2=O)C1 (stereo not shown) | 1.905 | -10.15
CCC(OC)C(=O)N1CCC2(CC1)c1nc[nH]c1CCN2S(C)(=O)=O (stereo not shown) | -4.082 | 3.686
COCCN(C)CC1CCCN1S(=O)(=O)c1cccc(F)c1F (stereo not shown) | 5.051 | -2.466
Cc1ccc(C(=O)N2CCC(Oc3ccc(C)c(C)c3)CC2)c(=O)[nH]1 | 5.917 | -20.96
Cc1ccc(C(=O)NCCC(C)C)cc1NS(C)(=O)=O | -3.571 | -14.99
Cc1nc(N(C)C/C=C/c2ccccc2)c2cnn(C)c2n1 | 3.409 | -7.078
COCC1CN(C(=O)COc2ccc(C)cc2)Cc2cn(C)nc21 (stereo not shown) | 5.376 | 1.469
CN(C(=O)c1ccc[nH]1)C1CCC(NC(=O)OC(C)(C)C)CC1 (stereo not shown) | 3.922 | -15.76
CC1CCN(C(=O)c2ccc(N(C)Cc3cnn(C)c3)nc2)CC1 | 0.9901 | -8.658
Cc1nc(CN2CCC(CNC(=O)C3(C#N)CCCC3)CC2)oc1C | 3.488 | 2.324
CN(C)C(=O)N1Cc2nnn(C)c2C(COCc2cccnc2)C1 (stereo not shown) | -4.478 | 3.125
O=C(C1SCCc2sccc21)N1CC(O)C1 (stereo not shown) | -3.448 | -7.439
O=C1CCOCCN1Cc1ccc(Cl)c(F)c1 | 0.9662 | -2.561
O=C(Cc1ccsc1)N1CCc2ccc(=O)n(CC3CC3)c2CC1 | 10.16 | 3.161
COc1cc(CNC(C)Cn2ccnc2)cc2c1OCO2 (stereo not shown) | 3.333 | 11.19
O=C1NCCCc2[nH]c(-c3nc(C4CCCCC4)no3)nc21 | 0 | -4.92
CS(=O)(=O)c1ccc(-c2nc(C(=O)N3CCCC3)n3ccccc23)cc1 | 2.959 | -1222
CO[C@@H]1CC[C@H]2[C@H]1OCCN2S(=O)(=O)c1cn(C)cn1 | 8.046 | 7.589
Cc1nc(C)n(CC2CCCCN2CC(=O)Nc2ccncc2)n1 (stereo not shown) | -0.7634 | 17.48
COc1cccc(S(=O)(=O)CCNCCn2cccn2)c1 | 0 | -12.26
c1ccc(CN2CCC(NCCSc3ncn[nH]3)C2)cc1 (stereo not shown) | 9.091 | -19.02
Nc1cc2c(nn1)CCN(C(=O)CC1CCCCC1)C2 | 7.429 | -8.326
CC(C)CCN(C(=O)c1ccc(-n2ncc(C#N)c2N)cc1)C1CC1 | 2.564 | -7.526
Cc1nnc(NC(=O)NCc2cccnc2N(C)C)s1 | -1.527 | 9.078
Cc1nc2c(c(NC3CC3)n1)CCN(C(=O)C1(C#N)CC1)CC2 | 3.093 | -3.719
COC(=O)c1ccc(N2CCN(C(=O)c3cccnc3)C(C)C2)cc1 (stereo not shown) | -1.754 | -7.048
Cc1ncc(CN(C)CC2CCCN2c2cccnn2)s1 (stereo not shown) | -2.632 | 5.588
CN1C[C@@H](C(=O)NC2CCCC2)[C@@]2(COc3ccc(F)cc3C2=O)C1 | -0.7576 | -8.778
CC(C)Cc1cc(CNC(=O)c2ccccc2C2CCNC2)no1 (stereo not shown) | 9.091 | -6.81
COc1ccc2cc(C3CN(C(=O)N(C)C)CCO3)ccc2c1 (stereo not shown) | -5.833 | -3.952
Cc1ccc(-n2cnnn2)cc1NCC(=O)Nc1ccccc1Cl | -3.067 | 2.84
CCC[C@H]1CN(c2nccc(NCC)n2)C[C@@H]1NS(=O)(=O)N(C)C | 1.093 | -11.27
CN1CCCN(C(=O)c2ccnn2-c2ccc3ccccn23)CC1 | -1.058 | -4.251
CC(CNC(=O)c1cccc(C#N)c1)N1CCc2ccccc21 (stereo not shown) | 3.061 | 2.494
CC(CO)N(C)C(=O)c1cn(-c2ccc(Br)cc2)cn1 (stereo not shown) | 6.316 | -2.018
Cn1nc(C(=O)NCc2ccc(OC3CCCCC3)nc2)ccc1=O | 5.217 | -0.5747
O=C(c1ccc(-n2ccnc2)nc1)N1CCCC(n2cccn2)C1 (stereo not shown) | 3.422 | 3.863
Cc1ccc(-n2ccnc2)c(C(=O)NCCCN(C)C)c1 | 9.677 | -0.5186
CCC(NC(=O)c1ccco1)c1nc(C(F)(F)F)cs1 (stereo not shown) | 2.941 | -1.848
COc1cccc(CCC2CCCN(Cc3ncc[nH]3)C2)c1 (stereo not shown) | 7.328 | -10.01
COCCN1CC2(CCCN(C(=O)NCc3ccccc3)C2)CCC1=O (stereo not shown) | 5.464 | -9.732
COc1cccc2c1ccn2CCNC(=O)CC(C)C | 6.433 | -8.675
COc1ccc(NC(C)=O)cc1S(=O)(=O)Nc1ccon1 | 8.808 | 5.962
COC[C@H]1CCC[C@]12CN(S(=O)(=O)c1cccs1)CCO2 | 3.681 | -11.57
NCc1cc(NCC(c2ccccn2)N2CCOCC2)ncn1 (stereo not shown) | 8.046 | -10.13

4 of the entries, repeated:

structure,TcHisRS,ClpP1P2
O=C1NCCCc2[nH]c(-c3nc(C4CCCCC4)no3)nc21,0,-4.92
COCCN1CC2(CCCN(C(=O)NCc3ccccc3)C2)CCC1=O (stereo not shown),5.464,-9.732
CN1CCCN(C(=O)c2ccnn2-c2ccc3ccccn23)CC1,-1.058,-4.251
O=C(Cc1ccsc1)N1CCc2ccc(=O)n(CC3CC3)c2CC1,10.16,3.161